# Experimental data as given in paper PMC7706265.
# Chains of the proteins cited; added tags and fusions are not shown.
# UniProt P70288: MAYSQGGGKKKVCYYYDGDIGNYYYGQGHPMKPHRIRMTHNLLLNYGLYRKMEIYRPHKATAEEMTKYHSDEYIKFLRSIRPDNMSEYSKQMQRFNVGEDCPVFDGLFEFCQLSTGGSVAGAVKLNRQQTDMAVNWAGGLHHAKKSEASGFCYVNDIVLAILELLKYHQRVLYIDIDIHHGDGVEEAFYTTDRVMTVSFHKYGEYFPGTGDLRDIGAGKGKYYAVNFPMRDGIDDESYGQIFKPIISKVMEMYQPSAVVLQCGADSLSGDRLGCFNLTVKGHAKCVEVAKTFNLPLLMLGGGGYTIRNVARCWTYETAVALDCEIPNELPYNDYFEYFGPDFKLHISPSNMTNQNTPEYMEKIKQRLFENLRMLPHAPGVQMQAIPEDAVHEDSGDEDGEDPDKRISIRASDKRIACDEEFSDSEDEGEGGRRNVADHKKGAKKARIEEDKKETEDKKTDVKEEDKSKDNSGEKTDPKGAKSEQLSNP
# UniProt Q5DTW7: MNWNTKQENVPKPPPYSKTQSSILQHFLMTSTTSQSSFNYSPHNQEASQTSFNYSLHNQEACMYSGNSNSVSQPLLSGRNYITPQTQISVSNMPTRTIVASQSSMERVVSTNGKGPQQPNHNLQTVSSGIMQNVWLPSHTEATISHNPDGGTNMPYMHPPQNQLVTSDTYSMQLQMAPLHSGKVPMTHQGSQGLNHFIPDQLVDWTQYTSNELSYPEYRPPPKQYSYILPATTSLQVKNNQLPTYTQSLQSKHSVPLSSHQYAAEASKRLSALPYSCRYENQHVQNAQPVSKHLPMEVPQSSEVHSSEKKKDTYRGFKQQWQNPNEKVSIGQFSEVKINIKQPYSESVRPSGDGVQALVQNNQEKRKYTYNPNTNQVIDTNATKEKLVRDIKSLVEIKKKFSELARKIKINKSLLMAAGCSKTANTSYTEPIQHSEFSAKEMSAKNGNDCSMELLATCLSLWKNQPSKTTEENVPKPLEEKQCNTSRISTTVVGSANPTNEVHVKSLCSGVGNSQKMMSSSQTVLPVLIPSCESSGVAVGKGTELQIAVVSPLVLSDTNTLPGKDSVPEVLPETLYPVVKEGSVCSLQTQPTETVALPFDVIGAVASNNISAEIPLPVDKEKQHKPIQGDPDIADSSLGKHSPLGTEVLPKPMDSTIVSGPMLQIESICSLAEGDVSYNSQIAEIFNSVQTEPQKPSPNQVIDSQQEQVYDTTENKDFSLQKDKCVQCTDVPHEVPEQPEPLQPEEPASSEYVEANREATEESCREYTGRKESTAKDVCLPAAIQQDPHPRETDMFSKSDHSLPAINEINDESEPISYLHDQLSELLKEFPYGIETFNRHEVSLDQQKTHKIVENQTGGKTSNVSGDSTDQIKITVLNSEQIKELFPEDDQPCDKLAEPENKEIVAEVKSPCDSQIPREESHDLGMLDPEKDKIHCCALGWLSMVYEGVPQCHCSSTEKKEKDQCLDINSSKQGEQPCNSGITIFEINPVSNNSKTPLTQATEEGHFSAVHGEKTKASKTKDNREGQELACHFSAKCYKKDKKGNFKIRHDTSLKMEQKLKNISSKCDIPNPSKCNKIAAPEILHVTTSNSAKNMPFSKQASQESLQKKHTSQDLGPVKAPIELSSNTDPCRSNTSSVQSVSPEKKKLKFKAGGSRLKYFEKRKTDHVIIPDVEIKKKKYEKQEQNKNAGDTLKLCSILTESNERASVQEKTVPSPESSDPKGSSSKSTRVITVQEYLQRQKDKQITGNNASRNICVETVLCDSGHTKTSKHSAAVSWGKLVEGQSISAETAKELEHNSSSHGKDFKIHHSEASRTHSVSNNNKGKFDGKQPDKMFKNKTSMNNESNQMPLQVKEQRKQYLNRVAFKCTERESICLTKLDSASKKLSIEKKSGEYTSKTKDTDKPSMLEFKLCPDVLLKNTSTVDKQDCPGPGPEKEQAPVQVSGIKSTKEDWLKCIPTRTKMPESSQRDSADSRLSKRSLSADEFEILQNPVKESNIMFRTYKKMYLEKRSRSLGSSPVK
# UniProt A2AWL7: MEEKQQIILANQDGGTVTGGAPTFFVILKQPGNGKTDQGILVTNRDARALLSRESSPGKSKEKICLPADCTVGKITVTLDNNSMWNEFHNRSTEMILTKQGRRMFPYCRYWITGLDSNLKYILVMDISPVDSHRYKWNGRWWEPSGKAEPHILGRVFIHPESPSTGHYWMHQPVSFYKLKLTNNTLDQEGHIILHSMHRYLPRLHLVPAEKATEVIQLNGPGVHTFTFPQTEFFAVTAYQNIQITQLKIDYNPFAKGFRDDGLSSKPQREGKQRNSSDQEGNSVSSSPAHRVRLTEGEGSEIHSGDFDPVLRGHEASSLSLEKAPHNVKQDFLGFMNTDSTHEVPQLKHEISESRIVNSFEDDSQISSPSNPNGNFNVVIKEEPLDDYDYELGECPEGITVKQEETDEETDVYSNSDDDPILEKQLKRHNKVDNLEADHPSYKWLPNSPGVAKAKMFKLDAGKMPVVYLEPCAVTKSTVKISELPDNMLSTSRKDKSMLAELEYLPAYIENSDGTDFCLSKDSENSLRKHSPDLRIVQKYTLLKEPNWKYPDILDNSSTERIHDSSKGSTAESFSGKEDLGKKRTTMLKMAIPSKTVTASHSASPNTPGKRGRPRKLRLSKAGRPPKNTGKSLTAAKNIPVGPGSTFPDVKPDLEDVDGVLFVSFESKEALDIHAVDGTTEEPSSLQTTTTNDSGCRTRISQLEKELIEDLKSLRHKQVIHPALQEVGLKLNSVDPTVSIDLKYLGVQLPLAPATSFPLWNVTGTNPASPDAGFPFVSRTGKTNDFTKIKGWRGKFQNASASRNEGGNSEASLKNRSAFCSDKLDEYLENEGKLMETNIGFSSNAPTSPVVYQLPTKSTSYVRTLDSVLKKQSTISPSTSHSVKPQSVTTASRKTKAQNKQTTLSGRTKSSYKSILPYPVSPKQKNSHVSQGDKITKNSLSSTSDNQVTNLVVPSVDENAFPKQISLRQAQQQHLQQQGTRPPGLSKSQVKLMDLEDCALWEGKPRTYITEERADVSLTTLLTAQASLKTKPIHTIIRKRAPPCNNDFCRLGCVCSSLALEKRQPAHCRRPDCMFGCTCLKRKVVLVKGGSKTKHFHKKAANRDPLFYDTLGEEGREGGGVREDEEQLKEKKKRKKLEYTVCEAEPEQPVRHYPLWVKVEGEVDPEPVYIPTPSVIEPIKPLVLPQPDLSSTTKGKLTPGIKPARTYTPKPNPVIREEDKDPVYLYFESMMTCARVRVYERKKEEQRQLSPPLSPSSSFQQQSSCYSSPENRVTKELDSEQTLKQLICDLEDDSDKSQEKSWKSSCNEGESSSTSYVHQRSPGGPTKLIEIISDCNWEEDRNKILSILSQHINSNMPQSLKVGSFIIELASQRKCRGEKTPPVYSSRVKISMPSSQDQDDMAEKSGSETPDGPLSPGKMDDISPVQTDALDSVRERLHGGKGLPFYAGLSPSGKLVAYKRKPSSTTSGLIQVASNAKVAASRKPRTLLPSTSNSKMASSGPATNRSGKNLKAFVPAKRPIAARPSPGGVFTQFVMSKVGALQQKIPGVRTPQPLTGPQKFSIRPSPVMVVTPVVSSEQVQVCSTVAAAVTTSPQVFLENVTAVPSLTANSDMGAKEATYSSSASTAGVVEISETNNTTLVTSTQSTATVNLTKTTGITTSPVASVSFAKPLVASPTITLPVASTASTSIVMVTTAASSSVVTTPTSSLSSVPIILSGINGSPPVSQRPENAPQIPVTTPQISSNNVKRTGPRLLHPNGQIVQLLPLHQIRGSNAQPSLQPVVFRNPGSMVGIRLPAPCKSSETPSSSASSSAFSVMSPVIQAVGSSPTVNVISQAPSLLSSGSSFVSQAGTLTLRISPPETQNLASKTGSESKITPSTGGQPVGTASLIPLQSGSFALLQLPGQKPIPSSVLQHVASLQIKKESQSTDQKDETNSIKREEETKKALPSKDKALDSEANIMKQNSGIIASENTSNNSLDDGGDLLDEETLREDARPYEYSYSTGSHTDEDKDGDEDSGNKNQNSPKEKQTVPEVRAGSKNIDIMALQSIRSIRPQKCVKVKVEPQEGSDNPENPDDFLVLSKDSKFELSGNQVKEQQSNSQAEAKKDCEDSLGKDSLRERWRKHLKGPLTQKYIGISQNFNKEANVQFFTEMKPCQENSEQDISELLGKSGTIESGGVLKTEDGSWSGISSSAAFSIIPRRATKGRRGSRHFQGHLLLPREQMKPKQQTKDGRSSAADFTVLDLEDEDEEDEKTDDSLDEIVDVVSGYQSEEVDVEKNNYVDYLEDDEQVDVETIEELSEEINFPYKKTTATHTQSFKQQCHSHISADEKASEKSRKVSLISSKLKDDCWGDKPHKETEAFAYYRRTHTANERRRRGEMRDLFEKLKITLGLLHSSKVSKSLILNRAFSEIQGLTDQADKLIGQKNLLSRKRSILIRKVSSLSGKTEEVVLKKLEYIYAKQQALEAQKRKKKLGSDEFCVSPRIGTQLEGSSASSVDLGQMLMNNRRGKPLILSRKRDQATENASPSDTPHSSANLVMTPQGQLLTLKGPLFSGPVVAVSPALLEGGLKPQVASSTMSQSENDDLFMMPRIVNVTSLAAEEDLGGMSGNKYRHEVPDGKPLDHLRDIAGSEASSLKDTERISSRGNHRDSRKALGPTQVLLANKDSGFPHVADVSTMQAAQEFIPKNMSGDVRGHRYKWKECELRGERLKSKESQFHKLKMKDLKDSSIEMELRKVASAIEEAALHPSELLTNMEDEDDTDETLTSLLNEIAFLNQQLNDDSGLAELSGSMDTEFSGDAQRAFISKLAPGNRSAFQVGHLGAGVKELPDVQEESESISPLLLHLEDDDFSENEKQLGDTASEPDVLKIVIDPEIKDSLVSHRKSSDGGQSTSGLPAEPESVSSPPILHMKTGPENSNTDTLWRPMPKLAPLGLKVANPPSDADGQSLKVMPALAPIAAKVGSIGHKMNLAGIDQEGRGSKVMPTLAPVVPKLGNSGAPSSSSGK
# UniProt A2A791: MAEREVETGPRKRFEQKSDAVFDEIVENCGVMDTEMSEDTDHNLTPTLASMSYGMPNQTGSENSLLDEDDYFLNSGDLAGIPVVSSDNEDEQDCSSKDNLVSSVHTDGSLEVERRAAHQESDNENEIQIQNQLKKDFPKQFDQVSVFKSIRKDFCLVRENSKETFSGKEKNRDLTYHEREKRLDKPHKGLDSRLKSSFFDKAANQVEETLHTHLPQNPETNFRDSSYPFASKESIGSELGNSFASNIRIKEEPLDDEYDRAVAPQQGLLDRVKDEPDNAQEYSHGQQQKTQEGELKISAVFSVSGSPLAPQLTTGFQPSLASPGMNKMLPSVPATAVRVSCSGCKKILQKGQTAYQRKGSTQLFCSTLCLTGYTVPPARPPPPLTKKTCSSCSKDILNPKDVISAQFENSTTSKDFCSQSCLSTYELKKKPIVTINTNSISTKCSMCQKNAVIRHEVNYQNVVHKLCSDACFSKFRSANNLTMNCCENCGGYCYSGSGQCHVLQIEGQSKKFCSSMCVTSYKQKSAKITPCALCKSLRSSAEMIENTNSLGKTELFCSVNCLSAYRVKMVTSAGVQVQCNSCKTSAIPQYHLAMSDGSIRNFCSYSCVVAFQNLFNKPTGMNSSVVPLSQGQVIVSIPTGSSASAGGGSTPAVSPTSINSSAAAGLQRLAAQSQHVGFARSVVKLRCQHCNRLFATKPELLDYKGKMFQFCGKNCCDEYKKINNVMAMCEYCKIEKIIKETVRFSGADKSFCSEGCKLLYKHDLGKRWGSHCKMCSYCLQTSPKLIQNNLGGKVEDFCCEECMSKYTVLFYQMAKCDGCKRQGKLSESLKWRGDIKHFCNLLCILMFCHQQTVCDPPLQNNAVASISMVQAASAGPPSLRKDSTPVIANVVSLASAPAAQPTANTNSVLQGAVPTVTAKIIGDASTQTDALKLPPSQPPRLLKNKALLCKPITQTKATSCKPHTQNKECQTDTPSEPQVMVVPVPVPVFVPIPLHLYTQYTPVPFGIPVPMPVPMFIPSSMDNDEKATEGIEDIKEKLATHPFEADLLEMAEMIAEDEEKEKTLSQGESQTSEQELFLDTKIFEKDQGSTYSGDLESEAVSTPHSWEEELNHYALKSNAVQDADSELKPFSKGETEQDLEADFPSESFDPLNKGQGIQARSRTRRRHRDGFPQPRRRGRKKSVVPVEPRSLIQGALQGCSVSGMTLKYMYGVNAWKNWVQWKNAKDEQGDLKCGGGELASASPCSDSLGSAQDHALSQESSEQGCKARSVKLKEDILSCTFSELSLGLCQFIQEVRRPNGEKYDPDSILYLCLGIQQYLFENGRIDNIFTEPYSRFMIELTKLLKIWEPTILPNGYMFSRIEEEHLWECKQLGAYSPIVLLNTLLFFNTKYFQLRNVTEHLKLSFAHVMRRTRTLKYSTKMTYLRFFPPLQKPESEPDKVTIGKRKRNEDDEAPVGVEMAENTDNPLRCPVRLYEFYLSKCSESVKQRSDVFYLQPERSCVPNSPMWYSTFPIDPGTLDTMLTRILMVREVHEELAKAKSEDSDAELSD
# These are yes or no findings as the source states them, for the method shown. Binding seen in cells or lysates may run through a third protein. Here binding means that the protein was enriched with, or labelled near, the bait; the list need not be complete. Where a sequence is shown, tags or fusion partners need not be part of it.
# B1: endogenous Cpsf2 (mESC nuclear lysate) (protein, UniProt O35218 1-782)
# chain: MTSIIKLTTLSGVQEESALCYLLQVDEFRFLLDCGWDEHFSVDIIDSLRKHVHQIDAVLLSHPDPLHLGALPFAVGKLGLNCAIYATIPVYKMGQMFMYDLYQSRHNTEDFTLFTLDDVDAAFDKIQQLKFSQIVNLKGKGHGLSITPLPAGHMIGGTIWKIVKDGEEEIVYAVDFNHKREIHLNGCSLEMLSRPSLLITDSFNATYVQPRRKQRDEQLLTNVLETLRGDGNVLIAVDTAGRVLELAQLLDQIWRTKDAGLGVYSLALLNNVSYNVVEFSKSQVEWMSDKLMRCFEDKRNNPFQFRHLSLCHGLSDLARVPSPKVVLASQPDLECGFSRDLFIQWCQDPKNSIILTYRTTPGTLARFLIDNPTEKVTEIELRKRVKLEGKELEEYVEKEKLKKEAAKKLEQSKEADIDSSDESDVEEDVDQPSAHKTKHDLMMKGEGSRKGSFFKQAKKSYPMFPAPEERIKWDEYGEIIKPEDFLVPELQATEEEKSKLESGLTNGEEPMDQDLSDVPTKCVSATESIEIKARVTYIDYEGRSDGDSIKKIINQMKPRQLIIVHGPPEASQDLAECCRAFGGKDIKVYMPKLHETVDATSETHIYQVRLKDSLVSSLQFCKAKDAELAWIDGVLDMRVSKVDTGVILEEGELKDDGEDSEMQVDAPSDSSAMAQQKAMKSLFGEDEKELGEETEIIPTLEPLPPHEVPGHQSVFMNEPRLSDFKQVLLREGIQAEFVGGVLVCNNQVAVRRTETGRIGLEGCLCQDFYRIRDLLYEQYAIV
# B2: endogenous Cstf2t (mESC nuclear lysate) (protein, UniProt Q8C7E9 1-632)
# chain: MSSLAVRDPAMDRSLRSVFVGNIPYEATEEQLKDIFSEVGSVVSFRLVYDRETGKPKGYGFCEYQDQETALSAMRNLNGREFSGRALRVDNAASEKNKEELKSLGPAAPIIDSPYGDPIDPEDAPESITRAVASLPPEQMFELMKQMKLCVQNSHQEARNMLLQNPQLAYALLQAQVVMRIMDPEIALKILHRKIHVTPLIPGKSQPVSGPGPGGPGPSGPGGPGPGPAPGLCPGPNVMLNQQNPPAPQPQHLPRRPVKDIPPLMQTSIQGGIPAPGPIPAAVPGPGPGSLTPGGAMQPQVGMPVVGPVPLERGQMQISDPRPPMPRGPMPSGGIPPRGLLGDAPNDPRGGTLLSVTGEVEPRGYMGPPHQGPPMHHGHDNRGPASHDMRGGPLAADPRMLIGEPRGPMIDQRGLPMDGRGGRESRGMETRPMETEVLEPRGMERRMETCAMETRGMDARGLEMRGPGPSSRGPMTGGIQGPGPINMGAGGPQGPRQVPNIAGVGNPGGTMQGAGIQGGGMQGAGMQGGGMQGAGMQGGGMQGAGMQAGMQGASMQGGMQGAGMQGASKQGGGQPSSFSPGQSQVTPQDQEKAALIMQVLQLTADQIAMLPPEQRQSILILKEQIQKSTGAS
# B3: endogenous ZMYM2 (mESC nuclear lysate) (protein, UniProt Q9CU65 1-1376)
# chain: MDTSSVGTLELTDQTPVLLGSTAMATSLTNVGNSFSGPPNPLVSRSSKFQNSSVEDDDDVVFIEPVQPPPSSAPLVADQRPITFTSSKNEELQGNDPKILPSSKELAPQKGSVSETIVIDDEEDMETNQGQEKSSSNFIERRPSETKNRTNDVDFSSSTFSRSKVNAGVSNSGITTEPDSEIQIANVTTLETGVSSVSDGQLESTDGRDMNLMITHVTSLHNTSLGDGSNGLQSSNFGVNIQTYTPSLTSQTKAGVGPFNPGRMNVAGDVFQNGESAPHHNPDSWISQSASFPRNQKQQGVDSLSPVASLPKQIFQPSNQQPTKPVKVTCANCKKPLQKGQTAYQRKGSAHLFCSTTCLSSFSHKPAPKKLCVMCKKDITTMKGTIVAQVDSSESFQEFCSTSCLSLYEDKQSPAKGALNKSRCTICGKLTEIRHEVSFKNMTHKLCSDHCFNRYRMANGLIMNCCEQCGEYLPSKGAGNNVLVVDGQQKRFCCQSCVTEYKQVGSHPSFLKEVRDHMQDSFLMQPEKYGKLTTCTGCRTQCRFFDMTQCIGPNGYMEPYCSTACMNSHKTKYAKSQSLGIICHFCKRNSLPQYQATMPDGKLYNFCNSSCVAKFQALSMQSSPNGQFVAPSDIQLKCNYCKNSFCSKPEILEWENKVHQFCSKTCSDDYKKLHCIVTYCEYCQEEKTLHETVNFSGVKRPFCSEGCKLLYKQDFARRLGLRCVTCNYCSQLCKKGATKELDGVVRDFCSEDCCKKFQEWYYKAARCDCCKSQGTLKERVQWRGEMKHFCDQHCLLRFYCQQNEPNMTTQKGPENLHYDQGCQTSRTKMTGSAPPPSPTPNKEMKNKAILCKPLTMTKATYCKPHMQTKSCQTDENWKTEYVPVPIPVPVYVPVPMHMYSQNIPVPTTVPVPVPVPVFLPAPLDSSEKIPATVEDLKSKVSSDPLDSELLTMTDMMTEEEGKAEASNINSVIIETDIIGSDLTKNSDPDIQSNMPDVPYEPDLDIEIDFPRAAEELDMENEFLLPPVFGEEYEEQPRPRSKKKGTKRKAVSGYQSHDDSSDNSECSFPFKYTYGVNAWKHWVKTRQLDEDLLVLDELKSSKSVKLKEDLLSHTTAELNYGLAHFVNEIRRPNGENYAPDSIYYLCLGIQEYLCGSNRKDNIFIDPGYQMFEQELNKILRSWQPSILPDGSIFSRVEEDYLWRIKQLGSHSPVALLNTLFYFNTKYFGLKTVEQHLRLSFGTVFRHWKKNPLTMENKACLRYQVSSLCGTDNEDKIATGKRKHEDDEPVFEQVENTANPSRCPVKMFECYLSKSPQNLNQRMDVFYLQPECSSSTDSPVWYTSTSLDRNTLENMLVRVLLVKDIYDKDNYELDEDTD
# B4: endogenous ZFP518A (mESC nuclear lysate) (protein, UniProt B2RRF6 1-1478)
# chain: MPFEQTQLFCDEKPTILKKLDTRNEIADTIRSVSTSKISETSFQYVLKDVNICLPKINIPNEILMKHEVEKYRLLFQSKPQTARKSISVKTVSCAEECVLLCKSERAEDETVNMSAKILNFSCSKCQDSTQYSPNDLQKHFEMWHHGELPSFPCEMCSFSASDFQIFKQHRKTHRNTFVKCDICNSERSYTLLDLTKHFTSKHCVNGNFQCEECRFFTQDVGTFVQHIHRHKEVHYKCGKCHHLCFTKGELQKHLRVHSGTLPFTCHYCSYGAIHKDQLIRHVITLHKEHLYAKEKLERDQYDKRVAKTTTTGLKLILKRYKIGPTKTFWKRKTITSGNDESIGKNAQAFNIVSKTQTKSEDQSQEQVNGEKGEKQHCENGDKPVESESEKATVLSTGQYNKADEGASTTSSSVLSAVQGPTVLLVRNNKITIPANYSAKFMGFKMVDGRQHIVIKLLPANKQILPSPVLQSNTEKNSTANLSPQAVANTGFATGLTTKVNDTDFVKAAPPACSSPVLARKVISEKEAAFISEKNNTLQMVDDSKSLSSLPTTSTTSVRVTTKVEARDNVDLWENDSPQSHPDASDTSISSPDKVSLTPKPNAYSSGDMHNYCINYVNSELPAESSNSFEFSNQGSLPFHNYSKVNNKRRRFSRATLCENLQKESPNKTVTQQSTSDSDTASPLLRKESSNSDNLFASINPLNGTLKIKTEIEEPYNLEETQNFNEQSLFTNENQNLLNVTEEPKWNDIPSAGSPMMPRITSVFSLQSEQASEFLTPEVNQLLQDTLKPKSDIKEDSNNIPSKNLPFDCDQTLKKSEEVVIKSSKDFQMQDDIPVPSASVGVNVPANDLNSKCNGQEKQGLSVLQDVRDSEVTTKIPNIITLLKTQSDAIITQQLVKDKLRTTTQNSGPVYVQNPFLTSEQKNPVFVQTPKGFIIPLHVANKPGLHVFSGRPVPLVNTRSVPATLLVNKKPGMLLATNNGKPESVPTVKTENVHSYGTVTKEPCKTPFLKAEHNNSCLTPGLCSSIGNCVNMKTCSENTLPLKGSYIIKTSVNSSVKAVPNILPEQQGPKMNILDTVKQQNENLPKASLYTLMPDGKQAVFFKCVMPNNTKLLKPKLVQSSTYQHIQPKRPAGAPQKILVKIFNPVLSMSAFNNLSASNSASSFQKEIVPSKPTVHGEQKEPETSRNALPVLVHGLMPANETVHSSTTACPGSSEEPVYISERSETRVLRGKANCAVERNFNKRKTCKNKFAKIKTRIDQDSETAFVSRNRSCKRKYIDNYQEPPRKKSTLNRKGKERASAEDVQEAFGFSRPRLPKDSSRTLRLFPFSSKQLVKCPRRNQPVVVLNHPDADTPEVERVMKTIAKFNGHVLKVSLSQTTINALLKPVSNTSETTYNDFSKRQKMLKPVNSVKERFVLKLTLKKTSKNNYQIVKTTSEDVLKSQFNCWFCGRVFDNQDVWAGHGQRHLVEATRDWNMLE
# Biological target: T1, GST-tagged FNIII domain of mouse ATF7IP (mouse) (UniProt Q7TT18)
# T1 sequence: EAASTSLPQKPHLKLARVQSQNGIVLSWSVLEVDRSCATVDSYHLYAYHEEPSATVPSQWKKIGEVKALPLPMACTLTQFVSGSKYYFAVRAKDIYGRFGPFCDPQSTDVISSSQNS
# Experiment: affinity purification with mass spectrometry; GST-tagged FNIII domain immobilised on Glutathione 4B sepharose (2 µg protein/10 µL beads), incubated with the nuclear fraction of Atf7ip KO mESCs in normal-lysis buffer (150 mM NaCl, 1% NP-40) at 4 °C overnight; bound proteins identified by LC-MS/MS; only the target purified
row,Molecule,binding
1,endogenous Hdac1 (mESC nuclear lysate) (from UniProt O09106 1-482),binds
2,endogenous Hdac2 (mESC nuclear lysate) (from UniProt P70288 1-488),binds
3,endogenous KIAA1551 (mESC nuclear lysate) (from UniProt Q5DTW7 1-1521),binds
4,endogenous MGA (mESC nuclear lysate) (from UniProt A2AWL7 1-3003),binds
5,endogenous Rcor2 (mESC nuclear lysate) (from UniProt Q8C796 1-523),binds
6,endogenous ZMYM4 (mESC nuclear lysate) (from UniProt A2A791 1-1549),binds
7,B1,binds
8,B2,binds
9,B3,binds
10,B4,binds
